Source: PubChem BioAssay AID2551 (National Center for Advancing Translational Sciences (NCATS), 2010)
Out of some 310,000 compounds screened, about 17,000 (5.5%) were called active. This list was built around the results that the source calls inconclusive (neither active nor inactive); the mix of calls is not that of the screen. The call rests on the fitted dose curve; in most records, active means well fitted inhibition curve with a large enough effect; inconclusive means small, poorly fitted or top-dose-only effect, or effect the other way; inactive means no such curve, though single readings can be large or run the other way. Potencies of inconclusive entries are doubtful fits and often do not repeat.
Further: nearly all actives have a fitted effect of over 60% in size.
On the % scale 0 is the no-effect control and ±100 the full control effect; potency means the concentration at half of the fitted maximal effect.

Protein sequences, listed by entry. Tags and fused reporters are not part of them. Lines headed by an entry give the natural chain unless they say otherwise; changes in a name come on top.
UniProt P51450: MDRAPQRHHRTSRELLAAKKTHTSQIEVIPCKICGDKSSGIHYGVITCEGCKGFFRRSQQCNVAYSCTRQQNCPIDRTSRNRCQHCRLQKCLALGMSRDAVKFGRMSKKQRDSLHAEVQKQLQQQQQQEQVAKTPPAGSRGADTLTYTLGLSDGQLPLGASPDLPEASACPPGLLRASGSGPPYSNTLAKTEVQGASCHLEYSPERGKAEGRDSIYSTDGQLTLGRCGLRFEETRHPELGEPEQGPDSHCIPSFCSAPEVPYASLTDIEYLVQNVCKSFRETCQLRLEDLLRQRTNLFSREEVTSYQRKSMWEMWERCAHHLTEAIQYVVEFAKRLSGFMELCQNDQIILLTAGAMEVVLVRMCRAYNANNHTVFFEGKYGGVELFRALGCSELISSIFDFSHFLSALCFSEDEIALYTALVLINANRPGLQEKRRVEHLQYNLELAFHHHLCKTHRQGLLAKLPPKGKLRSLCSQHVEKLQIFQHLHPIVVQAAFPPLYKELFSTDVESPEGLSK

What follows are compounds tested against Nuclear receptor ROR-gamma (Mus musculus) (UniProt P51450) (assay: qHTS for inhibitors of ROR gamma transcriptional activity). Conditions: Drosophila S2 Gal4-RORgamma UAS-luciferase reporter, 20 h; activity change, negative = inhibition: at 53.6 µM (top of the series).
How it was run: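 Luciferase reporter read in Schneider cells carrying Gal4-RORγ (mouse) and UAS-Photinus luciferase; cells given compound 1 h before 700 uM copper sulfate induction, then incubated 20 h at ambient temperature.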
For `O=C(N/N=C/c1ccccn1)c1cc(C2CC2)[nH]n1`, the Potency was inconclusive: 35.5 µM [inhibitor, single point]. `c1ccc(Cc2nc3ccccc3n2Cc2ccccc2)cc1` was tested, and the Potency was inconclusive: 14.1 µM [inhibitor, partial curve, poor fit]. In the case of `COc1ccc(NC(=S)NC(=O)c2cccnc2)cc1`, the Potency is reported as active: 11.2 µM. In the case of `CN(C)c1cc[n+](Cc2c(Cl)cccc2Cl)cc1`, the Potency is reported as inconclusive: 14.1 µM [activator, partial curve]. In the case of `COc1cc(CNCCNC(=O)c2nonc2N)ccc1OCc1ccc(Cl)cc1`, the Potency is reported as inconclusive: 35.5 µM [inhibitor, single point]. In the case of `O=C(NC[C@H](O)c1ccccc1)c1ccccc1`, the Potency is reported as “inactive”. For `Fc1ccc(Nc2nc(-c3cccnc3)nc3ccccc23)cc1`, the Potency was “inactive”. With `Cc1ccc(C2=NOC(=O)/C2=C\C=C\c2ccccc2)cc1` the Potency was active: 14.1 µM. In the case of `CNc1nc(Nc2ccc(Br)cc2)nc(N)c1[N+](=O)[O-]`, the Potency is reported as inconclusive: 35.5 µM [inhibitor, single point]. For `COc1ccc(/C=C2\Sc3ccc(C(=O)N4CCc5ccccc5C4)cc3N(C)C2=O)cc1`, the Potency was inconclusive: 0.891 µM [activator, partial curve]. `CCN(CC)C(=O)C1CCCN(C(=O)c2oc3ccc(C)cc3c2C)C1` (centres undefined) was tested, and the Potency was “inactive”. `C/C(=N\Nc1ccc(F)cc1F)c1cccs1` was tested, and the Potency was inconclusive: 7.08 µM [activator, partial curve]. `O=C(Nc1cccc2ccccc12)c1ccc(F)cc1` was tested, and the Potency was “inactive”. In the case of `O=C(CCC(=O)OCc1ccc(Br)cc1)Nc1ccccc1`, the Potency is reported as “inactive”. With `CCN1C(=O)C(O)(CC(=O)c2ccccn2)c2ccccc21` (centres undefined) the Potency was “inactive”. For `C(=N\N1CCN(Cc2cccc3ccccc23)CC1)/c1cccnc1`, the Potency was “inactive”. `NS(=O)(=O)c1ccc(CCNC(=O)c2ccc[nH]c2=S)cc1` was tested, and the Potency was inconclusive: 35.5 µM [inhibitor, single point]. With `CCN1C(=NCCc2cccs2)N[C@@H](CCc2ccccc2)[C@H](C(=O)NCCc2cccs2)[C@H]1C` the Potency was “inactive”. With `CCOC(=O)c1c(CSc2ccc(CC)cc2)oc2ccc(O)c(CN(C)C)c12` the Potency was inconclusive: 35.5 µM [inhibitor, single point]. With `S=C(NC1CCCCCC1)NC1CCCC1` the Potency was active: 1.58 µM. For `CCc1noc(C)c1C(=O)OCC(=O)NC(=O)c1ccccc1OC`, the Potency was inconclusive: 7.94 µM [inhibitor, partial curve]. With `O=C(CCCCCn1c(=S)[nH]c2cc3c(cc2c1=O)OCO3)NCCc1ccccc1` the Potency was “inactive”. `Cc1cc(C)c2c(C)nn(-c3ccccc3)c2n1` was tested, and the Potency was inconclusive: 35.5 µM [inhibitor, single point]. In the case of `COc1cccc(/C=N/NC(=O)CNC(=O)c2ccncc2)c1O`, the Potency is reported as active: 15.8 µM. With `O=C(NCCc1c[nH]c2ccccc12)C1CCN(S(=O)(=O)c2ccc(F)cc2)CC1` the Potency was inconclusive: 12.6 µM [activator, partial curve]. In the case of `CCC(=O)N1CCN(CCN=CC2=C(O)CC(C)(C)CC2=O)CC1`, the activity change, negative = inhibition is reported as inactive: 12.7% [at 0.365 µM]. In the case of `N#Cc1ccccc1NC(=O)CSc1cn[nH]n1`, the Potency is reported as “inactive”. In the case of `O=C(N/N=C/c1ccc(Br)s1)c1cccnc1`, the Potency is reported as active: 1.26 µM. `COC(=O)C1=C(C)N(Cc2ccccc2)C(=NCC2CC2)N[C@H]1c1ccc(Br)cc1` was tested, and the Potency was inconclusive: 35.5 µM [inhibitor, single point]. `CN(Cc1ccccc1)c1ccc(C(CC(N)=O)NC(=O)Cc2ccc(Br)cc2)cc1[N+](=O)[O-]` (centres undefined) was tested, and the Potency was inconclusive: 35.5 µM [inhibitor, single point]. `CC(=O)c1c(O)cc2n(c1=O)-c1ccc(Cl)cc1C2(C)C` was tested, and the Potency was active: 10 µM. In the case of `COc1cc(OC)nc(N/N=C(\c2ccccc2)c2ccncc2)n1`, the Potency is reported as inconclusive: 31.6 µM [activator, single point]. With `COc1cc(CNc2nnnn2C)cc(OC)c1OC` the Potency was inconclusive: 0.224 µM [activator, single point]. `COc1ccc2oc(=O)c(C(=O)Nc3cccc(C(C)=O)c3)cc2c1` was tested, and the Potency was active: 2 µM. For `O=C(CSc1ncn[nH]1)N1N=C2/C(=C/c3ccccc3)CCCC2C1c1ccccc1` (centres undefined), the Potency was inconclusive: 7.08 µM [activator, partial curve]. `Cc1ccccc1-n1c(SCc2csc(Nc3ccccc3)n2)nnc1-c1cccnc1` was tested, and the Potency was inconclusive: 20 µM [inhibitor, single point]. For `CCc1c(C(=O)Nc2ccncc2)csc1C`, the activity change, negative = inhibition was inactive: -0.638% [at 0.365 µM]. With `O=C(N/N=C1\CCSC1)c1cc(Cl)ccc1O` the Potency was active: 11.2 µM. `COc1ccc(/C=N/Nc2nc(Nc3ccccc3)nc(N3CCCCC3)n2)c(OC)c1` was tested, and the Potency was active: 3.16 µM. For `CN(CCO)c1ccc(/C=N/Nc2nncc3ccccc23)cc1`, the Potency was inconclusive: 8.91 µM [inhibitor, partial curve, poor fit]. `Cc1ccccc1NC(=O)c1sc2nc3c(c(-c4ccco4)c2c1N)CCC3` was tested, and the Potency was inconclusive: 14.1 µM [activator, single point]. With `Cc1ccsc1C1C(C#N)=C(N)OC2=C1C(=O)CCC2` (centres undefined) the Potency was inconclusive: 25.1 µM [inhibitor, single point]. For `CCC/C=N/NC(=O)c1cc(-c2ccccc2)nc2ccccc12`, the Potency was inconclusive: 15.8 µM [inhibitor, single point]. With `Cc1cc(C)cc(NC2=NCC(=O)N2Cc2ccccc2)c1` the Potency was inconclusive: 25.1 µM [inhibitor, single point]. For `O=C(NC1CC2CCCC(C1)N2Cc1ccc(F)cc1)c1ccc(F)cc1` (centres undefined), the Potency was “inactive”. For `COc1cccc(NC(=O)CNC(=O)N2CC(=O)Nc3ccccc32)c1`, the Potency was inconclusive: 0.141 µM [inhibitor, full curve, poor fit]. With `COc1ccc(C2N=C(c3ccccc3)C(C)(C)N2O)cc1OC` (centres undefined) the Potency was active: 10 µM. `CCCCC(=O)NCCc1cc2ccc(OC)cc2[nH]c1=O` was tested, and the Potency was inconclusive: 2.82 µM [activator, partial curve, poor fit]. `Cn1cc(C(=O)CCl)c2ccccc21` was tested, and the Potency was active: 11.2 µM.
